Among all 53,000 sequences or so, about 3,700 (7%) were called active.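 How the source made its calls: active means gene knockdowns whose robust z-score for IL-1 alpha signal is at least 2 or at most -2, so actives lie on both sides; inactive means the rest.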 This is one part of the list.

This experiment in a line: Components of the Cytosolic LPS Sensing Pathway: Gene Identification via Genome-wide siRNA Screen.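 Further: robust z of the log signal after scaling to non-targeting control siRNA wells of the plate.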 The following applies: RAW264.7 macrophages, IL-1a HTRF, actives lie on both sides, screened at 100 nM (by protocol), cells primed 5 h with Pam3CSK4 first. The essentials:
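Read-out: IL-1a HTRF on supernatant, divided by plate negative-control median ×100, log-transformed and converted to robust z-score. Cells were RAW264.7 given 100 nM siRNA, Pam3CSK4-primed 5 hours, then LipidA-transfected 24 hour.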
Take GCUUAUAAAGUAGUGGUUUTT against Wnt2b: the z-score was inactive: -0.384. On to GGGUUCCAAUGAAGAUCUCTT against Nr1i2, for which the z-score was inactive: 1.17. GGCUUCAAGAUGUUCGGCUTT against Plekhg5: the z-score was inactive: 1.86. With GGCAGUCUAGCUGAAUCAATT against Tnfsf14, the z-score was inactive: 0.227.

On to GGAAGAAGAAACUCAAGAGTT against Rnf167, for which the z-score was inactive: 1.11.

With GCAUUAUGAACCGAAAUGUTT against Olfr1265, the z-score was inactive: 0.391. With GGUCAGAUGUAGAAACAGCTT against Dlgap2 the figure was inactive: -0.632. For CCUGUACUACUGAUUAUUATT against Sinhcaf, the z-score is inactive: 0.16.

As for GGGUAUUUAUCUGAAGCCCTT against Tsc22d4, the z-score is inactive: -0.317. With GGGUUAGCCAUAGAAGAAGTT against Auh the figure was inactive: -0.461.

GGUCAUUCCUGAGUGCAGGTT against Olfr545: the z-score is inactive: 0.378. In the case of GGCCAUCUUGACACACAUGTT against Wnt4 it was inactive: -1.02. With GCACAUUCAGAUGAGGACUTT against Rnf6 the figure was inactive: -1.05; with CGACCUAAUGAAGAAUGUCTT against Hmgcr, inactive: -0.448; with GGAGACUCAUCCAAUAAAUTT against Vmn2r26, inactive: -1.08.

For GGUAUUUUUCAAGAUUACGTT against Cdkn1b, the z-score was inactive: 1.41. Regarding GGCUAAGCAACUCUUUCGATT against Sec22b, the z-score is inactive: 0.298. Turning to GGGCCUUCAACUUAACUUUTT against Mindy1, the z-score was inactive: -1.38. Turning to GGAGAAAUGCUGAUGUCAATT against Ankrd22, the z-score was inactive: -0.939. With GGCAUGAGGAUACUGAAGGTT against Klra19 the figure was inactive: -1.25. In the case of GCCAUGUACGCAAAAUAGUTT against Lsm12 it was inactive: -1.44; in that of CCCAAAGUGCUUUACAAUGTT against Aard, active: 2.1. GCACUCUCAUUCCUAUUGGTT against Slc10a4: the z-score is inactive: -0.0846. With GGAGCUAUCACUUUUCAUUTT against G0s2 the figure was inactive: 0.778; with GCUUCUGAUAUAGUCAGCCTT against Ptpro, inactive: 0.28.

For GCGAAUUGAGCUCAAACAUTT against Spty2d1, the z-score was inactive: -0.519.

For the sequence GGUGCUAGUGUAUGAAUUATT against Nsun5, the z-score was active: 2.39.

With CCAACUUGUAAUCAAAGGATT against Eif2s2, the z-score is inactive: -0.335. On to GGGCUGACCAGUUUGAGUATT against Polr2h, for which the z-score is active: -2.7. With GGCAGCCUAUAUAUACUCATT against Lpcat2b the figure was inactive: 0.254.
